# Values of other authors in patent US20250017941A1, “METHODS OF TREATING NON-HODGKIN LYMPHOMA USING 2-(2,6-DIOXOPIPERIDIN-3-YL)-4-((2-FLUORO-4-((3-MORPHOLINOAZETIDIN-1-YL)METHYL)BENZYL)AMINO)ISOINDOLINE-1,3-DIONE” (Celgene Corporation, priority 2021, published 2025).
# Some results were stated once for a whole list of compounds, not compound by compound.
# Test system: adult patients with CD20-positive indolent non-Hodgkin lymphoma refractory to rituximab
# Details: nausea, fatigue, neutropenia, cough, pyrexia, diarrhea, vomiting in both arms; also thrombocytopenia (monotherapy arm), constipation (combination arm)
smiles,measurement,value
Cn1c(CCCC(=O)O)nc2cc(N(CCCl)CCCl)ccc21 [bendamustine],"most common AEs of all grades, frequency",≥ 20%
